Measurements from article PMC7862473.
No constants are given. Whether binding was seen depends on the method and setting. In cells and extracts the contact can be indirect. Here binding means that the protein was enriched with, or labelled near, the bait; the list need not be complete.

Protein sequences, listed by entry. Tags and fused reporters are not part of them.
UniProt Q9H4G0: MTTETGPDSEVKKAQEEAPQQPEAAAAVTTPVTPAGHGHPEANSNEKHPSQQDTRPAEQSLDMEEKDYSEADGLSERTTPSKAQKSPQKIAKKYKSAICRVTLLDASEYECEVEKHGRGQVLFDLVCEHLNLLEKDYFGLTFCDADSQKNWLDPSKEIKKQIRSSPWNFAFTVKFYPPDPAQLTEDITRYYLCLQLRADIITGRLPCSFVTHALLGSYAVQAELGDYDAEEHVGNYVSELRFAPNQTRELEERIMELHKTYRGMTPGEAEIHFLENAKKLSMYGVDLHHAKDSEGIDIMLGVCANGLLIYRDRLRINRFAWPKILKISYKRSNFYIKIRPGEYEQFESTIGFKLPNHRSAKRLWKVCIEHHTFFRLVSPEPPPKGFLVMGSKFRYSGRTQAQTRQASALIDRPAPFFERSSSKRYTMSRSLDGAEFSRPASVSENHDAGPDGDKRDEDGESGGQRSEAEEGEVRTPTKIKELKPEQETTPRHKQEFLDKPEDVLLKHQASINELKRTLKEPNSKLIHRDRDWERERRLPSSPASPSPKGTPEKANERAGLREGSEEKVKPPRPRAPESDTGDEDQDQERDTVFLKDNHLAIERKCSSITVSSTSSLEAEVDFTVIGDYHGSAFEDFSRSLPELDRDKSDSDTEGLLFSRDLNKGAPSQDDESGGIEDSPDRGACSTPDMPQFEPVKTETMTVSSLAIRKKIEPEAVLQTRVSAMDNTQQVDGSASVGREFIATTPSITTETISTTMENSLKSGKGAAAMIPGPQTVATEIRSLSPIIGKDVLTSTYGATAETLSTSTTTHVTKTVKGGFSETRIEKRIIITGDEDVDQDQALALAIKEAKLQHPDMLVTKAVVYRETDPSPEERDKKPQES
UniProt P63104: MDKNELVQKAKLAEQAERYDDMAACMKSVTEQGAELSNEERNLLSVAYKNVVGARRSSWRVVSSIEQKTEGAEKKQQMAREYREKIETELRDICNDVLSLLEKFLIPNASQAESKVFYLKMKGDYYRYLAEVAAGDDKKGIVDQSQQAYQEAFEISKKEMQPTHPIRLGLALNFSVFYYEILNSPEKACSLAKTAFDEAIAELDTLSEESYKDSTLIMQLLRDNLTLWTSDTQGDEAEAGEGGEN

B1: 14-3-3γ (protein, UniProt P61981 1-247)
chain: MVDREQLVQKARLAEQAERYDDMAAAMKNVTELNEPLSNEERNLLSVAYKNVVGARRSSWRVISSIEQKTSADGNEKKIEMVRAYREKIEKELEAVCQDVLSLLDNYLIKNCSETQYESKVFYLKMKGDYYRYLAEVATGEKRATVVESSEKAYSEAHEISKEHMQPTHPIRLGLALNYSVFYYEIQNAPEQACHLAKTAFDDAIAELDTLNEDSYKDSTLIMQLLRDNLTLWTSDQQDDDGGEGNN
B2: 14-3-3η (protein, UniProt Q04917 1-246)
chain: MGDREQLLQRARLAEQAERYDDMASAMKAVTELNEPLSNEDRNLLSVAYKNVVGARRSSWRVISSIEQKTMADGNEKKLEKVKAYREKIEKELETVCNDVLSLLDKFLIKNCNDFQYESKVFYLKMKGDYYRYLAEVASGEKKNSVVEASEAAYKEAFEISKEQMQPTHPIRLGLALNFSVFYYEIQNAPEQACLLAKQAFDDAIAELDTLNEDSYKDSTLIMQLLRDNLTLWTSDQQDEEAGEGN

Each molecule was assayed against 4.1N expressed from EPB41L1-pEGFP in A2780 OE cells (human) (UniProt Q9H4G0) (assay: affinity purification with mass spectrometry; Co-IP with anti-GFP antibody from A2780 OE versus A2780 WT lysates, on-bead crosslinking, LC-MS/MS).

| binding | Molecule |
| --- | --- |
| binds | 14-3-3ζ (from UniProt P63104 1-245) |
| binds | B1 |
| binds | B2 |
